Patent publication US8957062B2, “Substituted cyclopropyl compounds, compositions containing such compounds and methods of treatment” (Merck Sharp & Dohme Corp., priority 2011, dated 2015)
pEC50: −log10 of the molar value.

Molecular target: T1, human GPR119 (Homo sapiens, UniProt Q8TDV5)
T1 sequence (Q8TDV5 1-308 limits assumed): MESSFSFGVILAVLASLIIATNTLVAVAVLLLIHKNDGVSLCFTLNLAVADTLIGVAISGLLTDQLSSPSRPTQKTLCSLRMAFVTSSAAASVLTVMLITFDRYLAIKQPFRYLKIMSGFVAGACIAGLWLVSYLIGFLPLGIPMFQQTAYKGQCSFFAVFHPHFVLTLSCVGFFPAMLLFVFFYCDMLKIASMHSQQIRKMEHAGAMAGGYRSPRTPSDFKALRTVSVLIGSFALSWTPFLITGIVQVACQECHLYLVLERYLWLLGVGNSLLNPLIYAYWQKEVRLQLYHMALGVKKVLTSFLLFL
Assay: Measurement of GPR119 signaling (cAMP assay) in cells stably transfected with human GPR119
Assay type: cell-based
Conditions: stated in the example text, cAMP stimulation
Procedure: Measurement of GPR119 Signaling (Cyclic AMP (cAMP) Assay)
The adenylate cyclase assay was constructed following the LANCE™ cAMP Kit (Perkin Elmer, AD0264) instructions.
The reaction was stopped by incubating with the supplied detection buffer containing the europium chelate of the Eu-SA/Biotin-cAMP tracer for 3 hours. The assay was performed in duplicate in a 384 well plate for duplicate plates and fluorescence was measured at 665 nm. Basal activity was determined using a DMSO control and maximum response was defined as cAMP stimulation produced by an internal agonist control. Standard cAMP concentrations were assayed concurrently for conversion of fluorescence signal to cAMP level. The data was analyzed using 4-parameter curve fit in Microsoft Excel.
Measurement of GPR119 Signaling (cAMP Homogenous Time Resolved Fluorescence (HTRF) Assay)
Chinese hamster ovary (CHO) cell lines stably transfected with the permissive guanine nucleotide binding protein alpha 15 (Gα15) and murine GPR119 were maintained in DMEM media containing FBS, penicillin-streptomycin, puromycin, and G418 (geneticin). […] Agonist activation of the GPR119 receptor was measured in receptor transfected cells described above, treated with compounds of this invention, using a commercial homogenous time resolved fluorescence (HTRF) kit for measurement of cAMP (CisBio, Bedford, Mass.). […]

pEC50: 8.70
Compound: CC(C)(C)COC(=O)N1CCC([C@H]2C[C@H]2CCOc2ccc(S(C)(=O)=O)cn2)CC1 [Example 14, neopentyl 4-((1R,2S)-2-(2-(5-(methylsulfonyl)pyridin-2-yloxy)ethyl)cyclopropyl)piperidine-1-carboxylate]
